Results reported in US12419871B2, “Biomolecules involved in Alzheimer's disease” (ELECTROPHORETICS LIMITED, priority 2015, dated 2025).

Assay: TMTcalibrator quantification of regulated proteins in AD CSF versus control
Set-up: species or system human
Details: CSF of AD patient versus control; non-modified peptides of each protein summed for three control and three AD cases

Molecule	Log2 AD/Control
Q9BX66 (protein, UniProt Q9BX66 1-1292, looked up, full-length) MSSECDGGSKAVMNGLAPGSNGQDKATADPLRARSISAVKIIPVKTVKNASGLVLPTDMDLTKICTGKGAVTLRASSSYRETPSSSPASPQETRQHESKPGLEPEPSSADEWRLSSSADANGNAQPSSLAAKGYRSVHPNLPSDKSQDATSSSAAQPEVIVVPLYLVNTDRGQEGTARPPTPLGPLGCVPTIPATASAASPLTFPTLDDFIPPHLQRWPHHSQPARASGSFAPISQTPPSFSPPPPLVPPAPEDLRRVSEPDLTGAVSSTDSSPLLNEVSSSLIGTDSQAFPSVSKPSSAYPSTTIVNPTIVLLQHNREQQKRLSSLSDPVSERRVGEQDSAPTQEKPTSPGKAIEKRAKDDSRRVVKSTQDLSDVSMDEVGIPLRNTERSKDWYKTMFKQIHKLNRDTPEENPYFPTYKFPELPEIQQTSEEDNPYTPTYQFPASTPSPKSEDDDSDLYSPRYSFSEDTKSPLSVPRSKSEMSYIDGEKVVKRSATLPLPARSSSLKSSSERNDWEPPDKKVDTRKYRAEPKSIYEYQPGKSSVLTNEKMSRDISPEEIDLKNEPWYKFFSELEFGKPPPKKIWDYTPGDCSILPREDRKTNLDKDLSLCQTELEADLEKMETLNKAPSANVPQSSAISPTPEISSETPGYIYSSNFHAVKRESDGAPGDLTSLENERQIYKSVLEGGDIPLQGLSGLKRPSSSASTKDSESPRHFIPADYLESTEEFIRRRHDDKEKLLADQRRLKREQEEADIAARRHTGVIPTHHQFITNERFGDLLNIDDTAKRKSGSEMRPARAKFDFKAQTLKELPLQKGDIVYIYKQIDQNWYEGEHHGRVGIFPRTYIELLPPAEKAQPKKLTPVQVLEYGEAIAKFNFNGDTQVEMSFRKGERITLLRQVDENWYEGRIPGTSRQGIFPITYVDVIKRPLVKNPVDYMDLPFSSSPSRSATASPQFSSHSKLITPAPSSLPHSRRALSPEMHAVTSEWISLTVGVPGRRSLALTPPLPPLPEASIYNTDHLALSPRASPSLSLSLPHLSWSDRPTPRSVASPLALPSPHKTYSLAPTSQASLHMNGDGGVHTPSSGIHQDSFLQLPLGSSDSVISQLSDAFSSQSKRQPWREESGQYERKAERGAGERGPGGPKISKKSCLKPSDVVRCLSTEQRLSDLNTPEESRPGKPLGSAFPGSEAEQTERHRGGEQAGRKAARRGGSQQPQAQQRRVTPDRSQTSQDLFSYQALYSYIPQNDDELELRDGDIVDVMEKCDDGWFVGTSRRTKQFGTFPGNYVKPLYL	0.82
Q8NHG7 (protein, UniProt Q8NHG7 1-77, looked up, full-length) MGLCFPCPGESAPPTPDLEEKRAKLAEAAERRQKEAASRGILDVQSVQEKRKKKEKIEKQIATSGPPPEGGLRWTVS	0.76
Q96PX8 (protein, UniProt Q96PX8 1-696, looked up, full-length) MLLWILLLETSLCFAAGNVTGDVCKEKICSCNEIEGDLHVDCEKKGFTSLQRFTAPTSQFYHLFLHGNSLTRLFPNEFANFYNAVSLHMENNGLHEIVPGAFLGLQLVKRLHINNNKIKSFRKQTFLGLDDLEYLQADFNLLRDIDPGAFQDLNKLEVLILNDNLISTLPANVFQYVPITHLDLRGNRLKTLPYEEVLEQIPGIAEILLEDNPWDCTCDLLSLKEWLENIPKNALIGRVVCEAPTRLQGKDLNETTEQDLCPLKNRVDSSLPAPPAQEETFAPGPLPTPFKTNGQEDHATPGSAPNGGTKIPGNWQIKIRPTAAIATGSSRNKPLANSLPCPGGCSCDHIPGSGLKMNCNNRNVSSLADLKPKLSNVQELFLRDNKIHSIRKSHFVDYKNLILLDLGNNNIATVENNTFKNLLDLRWLYMDSNYLDTLSREKFAGLQNLEYLNVEYNAIQLILPGTFNAMPKLRILILNNNLLRSLPVDVFAGVSLSKLSLHNNYFMYLPVAGVLDQLTSIIQIDLHGNPWECSCTIVPFKQWAERLGSEVLMSDLKCETPVNFFRKDFMLLSNDEICPQLYARISPTLTSHSKNSTGLAETGTHSNSYLDTSRVSISVLVPGLLLVFVTSAFTVVGMLVFILRNRKRSKRRDANSSASEINSLQTVCDSSYWHNGPYNADGAHRVYDCGSHSLSD	0.77
Q9HCB6 (protein, UniProt Q9HCB6 1-807, looked up, full-length) MRLSPAPLKLSRTPALLALALPLAAALAFSDETLDKVPKSEGYCSRILRAQGTRREGYTEFSLRVEGDPDFYKPGTSYRVTLSAAPPSYFRGFTLIALRENREGDKEEDHAGTFQIIDEEETQFMSNCPVAVTESTPRRRTRIQVFWIAPPAGTGCVILKASIVQKRIIYFQDEGSLTKKLCEQDSTFDGVTDKPILDCCACGTAKYRLTFYGNWSEKTHPKDYPRRANHWSAIIGGSHSKNYVLWEYGGYASEGVKQVAELGSPVKMEEEIRQQSDEVLTVIKAKAQWPAWQPLNVRAAPSAEFSVDRTRHLMSFLTMMGPSPDWNVGLSAEDLCTKECGWVQKVVQDLIPWDAGTDSGVTYESPNKPTIPQEKIRPLTSLDHPQSPFYDPEGGSITQVARVVIERIARKGEQCNIVPDNVDDIVADLAPEEKDEDDTPETCIYSNWSPWSACSSSTCDKGKRMRQRMLKAQLDLSVPCPDTQDFQPCMGPGCSDEDGSTCTMSEWITWSPCSISCGMGMRSRERYVKQFPEDGSVCTLPTEETEKCTVNEECSPSSCLMTEWGEWDECSATCGMGMKKRHRMIKMNPADGSMCKAETSQAEKCMMPECHTIPCLLSPWSEWSDCSVTCGKGMRTRQRMLKSLAELGDCNEDLEQVEKCMLPECPIDCELTEWSQWSECNKSCGKGHVIRTRMIQMEPQFGGAPCPETVQRKKCRIRKCLRNPSIQKLRWREARESRRSEQLKEESEGEQFPGCRMRPWTAWSECTKLCGGGIQERYMTVKKRFKSSQFTSCKDKKEIRACNVHPC	0.75
Q9BQI5 (protein, UniProt Q9BQI5 1-828, looked up, full-length) MMEGLKKRTRKAFGIRKKEKDTDSTGSPDRDGIQPSPHEPPYNSKAECAREGGKKVSKKSNGAPNGFYAEIDWERYNSPELDEEGYSIRPEEPGSTKGKHFYSSSESEEEEESHKKFNIKIKPLQSKDILKNAATVDELKASIGNIALSPSPVRKSPRRSPGAIKRNLSSEEVARPRRSTPTPELISKKPPDDTTALAPLFGPPLESAFDEQKTEVLLDQPEIWGSGQPINPSMESPKLTRPFPTGTPPPLPPKNVPATPPRTGSPLTIGPGNDQSATEVKIEKLPSINDLDSIFGPVLSPKSVAVNAEEKWVHFSDTSPEHVTPELTPREKVVSPPATPDNPADSPAPGPLGPPGPTGPPGPPGPPRNVLSPLNLEEVQKKVAEQTFIKDDYLETISSPKDFGLGQRATPPPPPPPTYRTVVSSPGPGSGPGPGTTSGASSPARPATPLVPCRSTTPPPPPPRPPSRPKLPPGKPGVGDVSRPFSPPIHSSSPPPIAPLARAESTSSISSTNSLSAATTPTVENEQPSLVWFDRGKFYLTFEGSSRGPSPLTMGAQDTLPVAAAFTETVNAYFKGADPSKCIVKITGEMVLSFPAGITRHFANNPSPAALTFRVINFSRLEHVLPNPQLLCCDNTQNDANTKEFWVNMPNLMTHLKKVSEQKPQATYYNVDMLKYQVSAQGIQSTPLNLAVNWRCEPSSTDLRIDYKYNTDAMTTAVALNNVQFLVPIDGGVTKLQAVLPPAVWNAEQQRILWKIPDISQKSENGGVGSLLARFQLSEGPSKPSPLVVQFTSEGSTLSGCDIELVGAGYRFSLIKKRFAAGKYLADN	0.72
Q9H4F8 (protein, UniProt Q9H4F8 1-434, looked up, full-length) MLPARCARLLTPHLLLVLVQLSPARGHRTTGPRFLISDRDPQCNLHCSRTQPKPICASDGRSYESMCEYQRAKCRDPTLGVVHRGRCKDAGQSKCRLERAQALEQAKKPQEAVFVPECGEDGSFTQVQCHTYTGYCWCVTPDGKPISGSSVQNKTPVCSGSVTDKPLSQGNSGRKDDGSKPTPTMETQPVFDGDEITAPTLWIKHLVIKDSKLNNTNIRNSEKVYSCDQERQSALEEAQQNPREGIVIPECAPGGLYKPVQCHQSTGYCWCVLVDTGRPLPGTSTRYVMPSCESDARAKTTEADDPFKDRELPGCPEGKKMEFITSLLDALTTDMVQAINSAAPTGGGRFSEPDPSHTLEERVVHWYFSQLDSNSSNDINKREMKPFKRYVKKKAKPKKCARRFTDYCDLNKDKVISLPELKGCLGVSKEGRLV	0.91
P06727 (protein, UniProt P06727 1-396, looked up, full-length) MFLKAVVLTLALVAVAGARAEVSADQVATVMWDYFSQLSNNAKEAVEHLQKSELTQQLNALFQDKLGEVNTYAGDLQKKLVPFATELHERLAKDSEKLKEEIGKELEELRARLLPHANEVSQKIGDNLRELQQRLEPYADQLRTQVSTQAEQLRRQLTPYAQRMERVLRENADSLQASLRPHADELKAKIDQNVEELKGRLTPYADEFKVKIDQTVEELRRSLAPYAQDTQEKLNHQLEGLTFQMKKNAEELKARISASAEELRQRLAPLAEDVRGNLRGNTEGLQKSLAELGGHLDQQVEEFRRRVEPYGENFNKALVQQMEQLRQKLGPHAGDVEGHLSFLEKDLRDKVNSFFSTFKEKESQDKTLSLPELEQQQEQQQEQQQEQVQMLAPLES	−1.97
P61278 (protein, UniProt P61278 1-116, looked up, full-length) MLSCRLQCALAALSIVLALGCVTGAPSDPRLRQFLQKSLAAAAGKQELAKYFLAELLSEPNQTENDALEPEDLSQAAEQDEMRLELQRSANSNPAMAPRERKAGCKNFFWKTFTSC	1.03
Q99884 (protein, UniProt Q99884 1-636, looked up, full-length) MKKLQGAHLRKPVTPDLLMTPSDQGDVDLDVDFAAHRGNWTGKLDFLLSCIGYCVGLGNVWRFPYRAYTNGGGAFLVPYFLMLAICGIPLFFLELSLGQFSSLGPLAVWKISPLFKGAGAAMLLIVGLVAIYYNMIIAYVLFYLFASLTSDLPWEHCGNWWNTELCLEHRVSKDGNGALPLNLTCTVSPSEEYWSRYVLHIQGSQGIGSPGEIRWNLCLCLLLAWVIVFLCILKGVKSSGKVVYFTATFPYLILLMLLVRGVTLPGAWKGIQFYLTPQFHHLLSSKVWIEAALQIFYSLGVGFGGLLTFASYNTFHQNIYRDTFIVTLGNAITSILAGFAIFSVLGYMSQELGVPVDQVAKAGPGLAFVVYPQAMTMLPLSPFWSFLFFFMLLTLGLDSQFAFLETIVTAVTDEFPYYLRPKKAVFSGLICVAMYLMGLILTTDGGMYWLVLLDDYSASFGLMVVVITTCLAVTRVYGIQRFCRDIHMMLGFKPGLYFRACWLFLSPATLLALMVYSIVKYQPSEYGSYRFPPWAELLGILMGLLSCLMIPAGMLVAVLREEGSLWERLQQASRPAMDWGPSLEENRTGMYVATLAGSQSPKPLMVHMRKYGGITSFENTAIEVDREIAEEEESMM	1.26
